# Experimental data from PubChem BioAssay AID1347423 (Functional Genomics Laboratory (NCATS/FGL), 2020).
# The campaign covered roughly 52,000 sequences. About 210 (0.4%) were called active.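 The calls were made as follows: active = gene whose silencing raises cell survival under the drug, median off-target-corrected z-score across its silencing RNAs 2 or more; inactive = the rest.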 The list shows a part of the results.
# Assay: Resistance to Poly (ADP-Ribose) Polymerase inhibitor: Gene Identification via Genome-wide siRNA Screen
# Details: mouse BRCA2 R2336H ES cells, olaparib, CellTiter-Glo viability; active compounds read high
# Source text: The role of Poly (ADP-Ribose) Polymerase (PARP) proteins in DNA repair has been elegantly utilized for the synthetic lethality-based treatment of BRCA-deficient tumors by PARP inhibitors. PARP inhibitors are now being used for treatment of BRCA-deficient breast and ovarian cancers. […] While several mechanisms of drug resistance have been identified, majority of these tumors develop drug resistance due to unknown causes. To identified novel regulators of chemo-resistance in BRCA2-mutated cells, we performed a genome wide siRNA library screen. We have found ES cells expressing a hypomorphic allele of BRCA2 to be hypersensitive to PAPP inhibitors (such as olaparib). We used ES cells expressing a mutant allele of BRCA2 that has a single amino acid substitution at position 2336 (arginine to histidine, R2336H). The screen was conducted using an Ambion (Thermo) Silencer Mouse Genome siRNA collection. The library targets 17,575 mouse genes with 3 siRNAs per gene. TET2 (E130014J05Rik) was identified as a top candidate.
# Transfections were performed in 384 well plates (Corning 3707). Plates were coated with 0.1% gelatin in H2O overnight at ambient temperature. Gelatin solution was aspirated (BioTek EL406) and siRNAs were printed using a Bravo VPrep liquid handler integrated within a BioCel automation platform (Agilent). Cell viability was measured using CellTiter Glo (Promega). For transfections, […] of serum free media containing Lipofectamine RNAiMax […] was added to wells containing siRNA (0.8pmol). Lipid and siRNA were allowed to complex for 45 min at ambient temperature before addition of 1000 cells in DMEM, 30% FBS to yield final transfection mixtures containing 20 nM siRNA in DMEM, 15% FBS. PARPi (olaparib, AZD2281) was added 48 h post-transfection (500 nM) and viability (CellTiter Glo, Promega) was assayed 72 h later on a PerkinElmer Envision 2104 Multilabel plate reader. Ambion Silencer Select Negative Control #2 was incorporated on all screening plates (16 wells) and the median negative control value on each plate was used for normalization. An siRNA targeting Trp53 was used as a positive control. This control yielded a median protective effect of ~1.9 fold versus negative control throughout the screen. The median absolute deviation (MAD) based z-score was calculated for each siRNA. Genes were then ranked by taking the median value for all siRNAs tested against a given gene. Scores were also adjusted for seed-based off-target effects to help deprioritize likely false positives.
row,Sequence,z-score
1,GGACAGAUGAGAGAGAAUUTT against Ttl,inactive: 0.122
2,GGCAUUGACAUCAUGUACUTT against Agxt,inactive: 2.16
3,GGAUUGGUGCAACUUCAGATT against Sp4,inactive: 1.53
4,GGGACAAAGAGAUACACAUTT against 9530056K15Rik,inactive: -1.18
5,GGUUUGGUGAAAACAAUCGTT against Akr1b3,inactive: 1.47
6,GGAGCAGGACGAGAAUCAATT against Cdkn1c,inactive: 2.94
7,GCUUUUUGAUCACGUCGCUTT against Hk1,inactive: 0.423
8,GGACACACACACAAAUUUGTT against Vps29,inactive: -1.23
9,GGAUGACAUGUCAUCAAAGTT against V1rj2,inactive: -0.249
10,GGAAAUUGUGAAAACUGGGTT against Copb2,inactive: -1.7
11,GGUUUUGAGAUUGAAAGAATT against Fer1l3,inactive: -0.553
12,GGUGUCCAAAAAUAAGCAATT against Top2a,inactive: 0.687
13,CCAAUAGGUCUGCUUGCCUTT against Oxgr1,inactive: -0.4
14,GGUGAAAAACUGCUAAAUATT against 4921521F21Rik,inactive: 1.77
15,GGUUUUUAACCUCUCCUGGTT against Mela,inactive: -0.616
16,GAAGACUUCGUCCUAACAGTT against Ctsg,inactive: -1.51
17,GGAGCUGUAUGACCAUGCCTT against Rab25,inactive: 0.282
18,GCUUGAACUUCCCGAGUGUTT against Krtcap3,inactive: 0.00774
19,GGGACAGUGUUUAUGACCCTT against Car5b,inactive: 1.28
20,GGUGUGGUGUGAGAUCUAUTT against Adra2a,inactive: 0.0486
21,GCUGUAGCUUCGGGCAAAGTT against BC043118,inactive: -1.31
22,GGUUGUGUGUUAUUUAUAGTT against Irak2,inactive: -0.71
23,GCACGAGACACUUUUCAUUTT against Dnajb5,inactive: 0.836

row,Sequence,z-score
1,GGGUCUUGAGAAUCUUAUGTT against Zfp454,inactive: 0.471
2,GGUCCAGAGGAUGAACAGATT against Crcp,inactive: -0.473
3,GGAAUGGUACUAUCAAAUATT against Bace2,inactive: -0.243
4,GGUUUAACAAGGAAUUAGGTT against Gngt1,inactive: 0.787
5,GGGAAUAUUCAGUUGACAATT against Iigp1,inactive: -0.297
6,GGUGAUUUCCAUCUACAACTT against Tgfb2,inactive: 0.0584
7,GGUGCCUGAGAUGCCCAAUTT against Defcr-rs12,inactive: -0.888
8,GGUGAUGAGCAACUUGGACTT against S100a4,inactive: -0.23
9,GGCCAAUUUGAAUAAUCUATT against Zfp119,inactive: 0.0816
10,GGUUCAGAACCAGUCCAUCTT against BC024955,inactive: -0.59
11,UUCUAAUCACAAAGGUUGATT against Olfr1113,inactive: 0.464
12,GGCAUAUGUGCAAAUAAAATT against Tmem7,inactive: -0.984
13,GGGAUAUUGAGUUAGCCUGTT against Bet1,inactive: 0.788
14,CGUGGCAAGAUGACUAUACTT against Ptprn2,inactive: 0.724
15,GCCUAUUGUCAGAAAAGUUTT against Usp4,inactive: -2.18
16,GGUUAUUGAGGAGUUCUACTT against Slc2a1,inactive: -0.111
17,GGACAAGGUAUCAUAUUGGTT against Siat4a,inactive: -0.171
18,GGAGUUAAAGAGCUUAGGCTT against Cstf2t,inactive: -0.976
19,GGCAUCAGAGCAUCUGUGCTT against Ankrd16,inactive: -1.4
20,GCUUGUUAAAAACGAAUUCTT against 4921510H08Rik,inactive: 0.058
21,GGUAACUGUGGACUUGCUUTT against Olfr1213,inactive: 0.36
22,GGAAAGACUACAAGAAUUUTT against 1700013H19Rik,inactive: 2.87
23,CGCGCUUCUACUUUUUUUATT against Titf1,inactive: -0.765

row,Sequence,z-score
1,CGAGAGCAUUAAUUACUUCTT against Sulf1,inactive: 0.635
2,GCUGGAUUACAUCACAUACTT against Sf3a3,inactive: -1.89
3,GGCAGACAGUCUAACAGAUTT against Krt2-6a,inactive: 0.914
4,ACAAAUAUUCCCUGGCCACTT against Slc39a13,inactive: -1.4
5,GGAGGAGCCUGUUCCAGAATT against Bcl7c,inactive: -2.49
6,GGUGGACUACUCACGAUUCTT against Kcnj4,inactive: -0.284
7,GCAACUCAAUCUGGUCACUTT against Psme1,inactive: 0.489
8,GCACACGAUUCCUCAUGGATT against Pigw,inactive: 1.87
9,GCCAAUGCAGGGUAAGUACTT against D330034A10Rik,inactive: 0.657
10,GGAGUUGUAAAGUUUGGCUTT against Slc12a2,inactive: 0.512
11,GGUGAUUCACAUAACAGGCTT against Npas3,inactive: 0.663
12,GGGAGUUCAACUUGAUGUATT against Irf6,inactive: -0.685
13,GCCUACAUUCACUCACUCCTT against Olfr1061,inactive: -0.166
14,GGCAUGUGUGAGAAUCAAUTT against Clrf,inactive: -0.251
15,GGAGAUCGAGUUCAACAUUTT against Olfr557,inactive: -0.792
16,GGUUUUUCUCACUUUUGUATT against Siah1a,inactive: -0.665
17,GGUGAAUUCAACUCUCUAATT against Decr1,inactive: 0.568
18,GGAGGAAAAAAAGUGAAGATT against Zfp339,inactive: 0.689
19,GGGCAAUGUUUGUCACUAATT against 2310005E10Rik,inactive: 1.62
20,GGUGCAAGAUAGUACGAUGTT against Gle1l,inactive: -2.71
21,CCUUUCAUACCUUAGGUUATT against B430110G05Rik,inactive: 0.631

# A stretch from the list above, as a working copy:
row,Sequence,z-score
4,ACAAAUAUUCCCUGGCCACTT against Slc39a13,inactive: -1.4
5,GGAGGAGCCUGUUCCAGAATT against Bcl7c,inactive: -2.49
6,GGUGGACUACUCACGAUUCTT against Kcnj4,inactive: -0.284
7,GCAACUCAAUCUGGUCACUTT against Psme1,inactive: 0.489
8,GCACACGAUUCCUCAUGGATT against Pigw,inactive: 1.87
9,GCCAAUGCAGGGUAAGUACTT against D330034A10Rik,inactive: 0.657
10,GGAGUUGUAAAGUUUGGCUTT against Slc12a2,inactive: 0.512
11,GGUGAUUCACAUAACAGGCTT against Npas3,inactive: 0.663
12,GGGAGUUCAACUUGAUGUATT against Irf6,inactive: -0.685
13,GCCUACAUUCACUCACUCCTT against Olfr1061,inactive: -0.166
14,GGCAUGUGUGAGAAUCAAUTT against Clrf,inactive: -0.251
15,GGAGAUCGAGUUCAACAUUTT against Olfr557,inactive: -0.792
16,GGUUUUUCUCACUUUUGUATT against Siah1a,inactive: -0.665
17,GGUGAAUUCAACUCUCUAATT against Decr1,inactive: 0.568
18,GGAGGAAAAAAAGUGAAGATT against Zfp339,inactive: 0.689
19,GGGCAAUGUUUGUCACUAATT against 2310005E10Rik,inactive: 1.62
20,GGUGCAAGAUAGUACGAUGTT against Gle1l,inactive: -2.71
